The values below come from PMC7862700.

Sequences of proteins named here, by UniProt entry; tags and fusion partners are left off. A change or cut given only in a name is not applied to a line headed by its entry.
UniProt Q01892: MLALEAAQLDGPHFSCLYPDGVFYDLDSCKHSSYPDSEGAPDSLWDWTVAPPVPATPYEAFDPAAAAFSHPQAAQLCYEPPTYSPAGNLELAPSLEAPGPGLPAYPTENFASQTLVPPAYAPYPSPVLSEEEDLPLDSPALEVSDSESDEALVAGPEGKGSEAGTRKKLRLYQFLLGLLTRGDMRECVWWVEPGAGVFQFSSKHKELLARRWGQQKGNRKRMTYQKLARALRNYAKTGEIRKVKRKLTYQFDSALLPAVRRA
UniProt P41161: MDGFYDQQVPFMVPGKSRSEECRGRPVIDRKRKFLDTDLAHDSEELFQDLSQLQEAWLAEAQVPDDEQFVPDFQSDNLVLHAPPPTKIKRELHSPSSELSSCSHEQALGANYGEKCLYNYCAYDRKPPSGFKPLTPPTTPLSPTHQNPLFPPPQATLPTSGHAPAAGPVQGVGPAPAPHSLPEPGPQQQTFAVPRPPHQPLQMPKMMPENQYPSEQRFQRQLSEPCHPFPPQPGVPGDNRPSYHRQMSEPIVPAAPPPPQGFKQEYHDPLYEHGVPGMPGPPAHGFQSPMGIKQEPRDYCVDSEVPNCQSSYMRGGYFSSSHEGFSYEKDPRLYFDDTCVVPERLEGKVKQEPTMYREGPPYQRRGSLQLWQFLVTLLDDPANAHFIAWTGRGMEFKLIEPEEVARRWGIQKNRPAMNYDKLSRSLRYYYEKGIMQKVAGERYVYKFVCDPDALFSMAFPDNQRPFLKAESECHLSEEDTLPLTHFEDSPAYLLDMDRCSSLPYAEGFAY
UniProt Q99607: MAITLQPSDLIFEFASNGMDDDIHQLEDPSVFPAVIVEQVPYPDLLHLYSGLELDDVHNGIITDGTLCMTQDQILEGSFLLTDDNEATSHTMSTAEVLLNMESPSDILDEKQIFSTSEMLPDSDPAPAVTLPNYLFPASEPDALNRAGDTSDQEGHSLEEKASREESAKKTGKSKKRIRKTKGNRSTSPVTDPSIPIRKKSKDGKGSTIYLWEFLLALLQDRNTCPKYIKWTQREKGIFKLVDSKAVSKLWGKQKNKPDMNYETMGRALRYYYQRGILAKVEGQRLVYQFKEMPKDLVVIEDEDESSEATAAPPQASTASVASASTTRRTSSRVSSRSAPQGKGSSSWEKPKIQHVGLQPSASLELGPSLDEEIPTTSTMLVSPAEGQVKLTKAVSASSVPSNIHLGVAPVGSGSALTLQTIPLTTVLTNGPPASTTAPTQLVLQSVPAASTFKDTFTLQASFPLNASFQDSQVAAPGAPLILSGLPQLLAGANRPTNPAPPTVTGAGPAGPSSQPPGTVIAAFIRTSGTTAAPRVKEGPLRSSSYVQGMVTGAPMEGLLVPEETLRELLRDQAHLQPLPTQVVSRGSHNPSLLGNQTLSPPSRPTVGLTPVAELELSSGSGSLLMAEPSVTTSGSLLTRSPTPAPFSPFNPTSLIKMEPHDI

Some targets named below: SPIB (UniProt Q01892); ETV5 (UniProt P41161); ELF4 (UniProt Q99607).
Common to all, as to assay: DAPPL (digital affinity profiling via proximity ligation, sequencing)
What all share (settings): 10 mM Tris-HCl pH 7.5, 50 mM NaCl, 1 mM DTT, 4% glycerol, room temperature, 30 min; GST-TFs on glutathione beads, 16-mer random dsDNA library, 0.1% …; high values mean tight binding; double strand, one strand shown; scale: fold enrichment (6-mer frequency, TF over GST control)

The target in the next experiment is T1, FLI1 (UniProt Q01543).
T1 sequence: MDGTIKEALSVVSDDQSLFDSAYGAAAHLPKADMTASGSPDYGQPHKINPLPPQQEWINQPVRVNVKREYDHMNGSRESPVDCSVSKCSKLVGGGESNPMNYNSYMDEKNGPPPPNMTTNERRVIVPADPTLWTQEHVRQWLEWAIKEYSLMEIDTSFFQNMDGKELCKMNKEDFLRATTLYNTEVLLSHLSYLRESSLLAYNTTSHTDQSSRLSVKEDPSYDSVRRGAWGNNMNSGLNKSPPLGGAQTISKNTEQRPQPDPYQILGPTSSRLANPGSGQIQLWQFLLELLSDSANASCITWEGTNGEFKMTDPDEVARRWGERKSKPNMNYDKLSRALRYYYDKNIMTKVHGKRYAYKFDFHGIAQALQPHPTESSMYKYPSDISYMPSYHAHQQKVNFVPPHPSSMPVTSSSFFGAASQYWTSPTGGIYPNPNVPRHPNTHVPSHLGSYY

For another experiment, the target named is T2, EHF (UniProt Q9NZC4).
T2 sequence: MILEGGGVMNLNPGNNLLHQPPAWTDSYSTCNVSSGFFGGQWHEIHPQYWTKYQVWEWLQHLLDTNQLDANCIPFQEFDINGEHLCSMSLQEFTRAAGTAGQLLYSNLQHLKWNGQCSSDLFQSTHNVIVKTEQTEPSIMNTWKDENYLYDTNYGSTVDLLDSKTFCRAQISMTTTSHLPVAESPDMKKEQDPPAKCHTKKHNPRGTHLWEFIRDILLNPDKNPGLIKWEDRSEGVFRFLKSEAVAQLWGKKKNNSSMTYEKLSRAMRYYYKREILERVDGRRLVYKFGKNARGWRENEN

The target of another experiment is T3, ETV2 (UniProt O00321).
T3 sequence: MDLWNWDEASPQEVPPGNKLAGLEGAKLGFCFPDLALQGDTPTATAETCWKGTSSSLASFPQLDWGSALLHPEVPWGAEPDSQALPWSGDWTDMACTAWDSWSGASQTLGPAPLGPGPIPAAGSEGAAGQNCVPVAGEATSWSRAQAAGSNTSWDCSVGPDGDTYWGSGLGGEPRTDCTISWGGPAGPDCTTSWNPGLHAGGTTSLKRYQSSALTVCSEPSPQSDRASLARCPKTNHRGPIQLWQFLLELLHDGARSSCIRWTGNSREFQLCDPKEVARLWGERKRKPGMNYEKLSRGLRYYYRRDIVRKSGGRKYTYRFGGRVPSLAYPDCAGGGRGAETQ

A further experiment has as its target T4, ETV3L (UniProt Q6ZN32).
T4 sequence: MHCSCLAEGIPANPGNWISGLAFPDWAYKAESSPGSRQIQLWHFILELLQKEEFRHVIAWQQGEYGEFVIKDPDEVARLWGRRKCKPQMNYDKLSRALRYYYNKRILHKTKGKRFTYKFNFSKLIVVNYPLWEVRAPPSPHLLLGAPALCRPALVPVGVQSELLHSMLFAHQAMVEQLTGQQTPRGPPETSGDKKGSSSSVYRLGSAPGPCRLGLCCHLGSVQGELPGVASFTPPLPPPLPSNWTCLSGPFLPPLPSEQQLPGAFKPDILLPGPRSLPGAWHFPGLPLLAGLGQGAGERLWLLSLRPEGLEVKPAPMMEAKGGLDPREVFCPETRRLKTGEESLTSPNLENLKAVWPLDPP

Only a part is listed here, and it is no random draw. At the low end of the ranking the order means little.

For GGAGCT, the binding signal turned out to be 0.568 with FLI1; 0.57 in the experiment with EHF; 0.627 with SPIB; 0.618 with ETV5; 0.55 with ELF4; 0.522 with ETV2. The sequence also came in with a binding signal with ETV3L of 0.6.

On to CCAGGA, for which the binding signal in the experiment with FLI1 was 0.679; with EHF, 0.722; with SPIB, 0.736; in the experiment with ETV5 it was 0.713; in the experiment with ELF4, 0.66; in the experiment with ETV2, 0.673. This sequence had a binding signal in the experiment with ETV3L of 0.657.

For CGTGGT, the binding signal in the experiment with FLI1 was determined as 0.532; with EHF it was 0.582; with SPIB it was 0.638; with ETV5 it was 0.561; with ELF4, 0.571; in the experiment with ETV2 it was 0.514. Besides, the binding signal with ETV3L amounted to 0.553.

With GAGGAT, the binding signal turned out to be 0.629 in the experiment with FLI1; 0.547 in the experiment with EHF; 0.525 in the experiment with SPIB; 0.606 in the experiment with ETV5; 0.568 with ELF4; 0.585 with ETV2. The same sequence displayed a binding signal with ETV3L of 0.584.

Regarding TAGACG, the binding signal with FLI1 amounted to 0.765; in the experiment with EHF, 0.738; with SPIB, 0.779; with ETV5 it was 0.745; in the experiment with ELF4 it was 0.745; in the experiment with ETV2, 0.717. The same sequence returned a binding signal with ETV3L of 0.714.

As for GGGCCA, the binding signal with FLI1 is 0.704; with EHF it was 0.742; with SPIB, 0.67; with ETV5 it was 0.688; in the experiment with ELF4, 0.678; in the experiment with ETV2 it was 0.735. For the same sequence, the binding signal in the experiment with ETV3L worked out at 0.717.

As for GAAGGC, the binding signal in the experiment with FLI1 came to 0.787; in the experiment with EHF, 0.923; in the experiment with SPIB, 0.932; with ETV5 it was 0.894; in the experiment with ELF4, 0.842; with ETV2 it was 0.908. Further, the binding signal with ETV3L came to 0.961.

Regarding TGAGAA, the binding signal came to 0.744 in the experiment with FLI1; 0.756 with EHF; 0.732 in the experiment with SPIB; 0.717 with ETV5; 0.737 with ELF4; 0.717 with ETV2. Moreover, the binding signal with ETV3L was 0.735.

Regarding GGCGTA, the binding signal amounted to 0.649 with FLI1; 0.666 in the experiment with EHF; 0.664 in the experiment with SPIB; 0.596 with ETV5; 0.595 in the experiment with ELF4; 0.653 with ETV2. The same sequence registered a binding signal with ETV3L of 0.661.

In the case of GCGCGA, the binding signal with FLI1 was determined as 0.697; in the experiment with EHF, 0.761; with SPIB, 0.755; in the experiment with ETV5, 0.733; with ELF4, 0.749; with ETV2, 0.767. In the experiment with ETV3L, this sequence had a binding signal of 0.72.

CGTGTT: the binding signal with FLI1 was 0.862; in the experiment with EHF, 0.854; in the experiment with SPIB it was 0.757; with ETV5, 0.837; with ELF4, 0.823; with ETV2 it was 0.773. Also, the binding signal with ETV3L is 0.822.

Regarding CCAGCC, the binding signal was found to be 0.723 with FLI1; 0.771 in the experiment with EHF; 0.771 with SPIB; 0.794 in the experiment with ETV5; 0.784 with ELF4; 0.887 with ETV2. The sequence further yielded a binding signal with ETV3L of 0.829.

Turning to GCTGAG, the binding signal in the experiment with FLI1 worked out at 0.63; in the experiment with EHF, 0.701; with SPIB it was 0.696; in the experiment with ETV5, 0.684; with ELF4 it was 0.709; in the experiment with ETV2, 0.65. Besides, the binding signal in the experiment with ETV3L amounted to 0.692.

Consider GGCCCG, for which the binding signal with FLI1 was 0.758; in the experiment with EHF, 0.725; in the experiment with SPIB, 0.684; in the experiment with ETV5, 0.709; in the experiment with ELF4, 0.831; in the experiment with ETV2 it was 0.754. For the same sequence, the binding signal with ETV3L turned out to be 0.67.

For the sequence CCGGAG, the binding signal in the experiment with FLI1 worked out at 0.489; with EHF it was 0.564; with SPIB, 0.484; with ETV5, 0.541; in the experiment with ELF4 it was 0.496; in the experiment with ETV2 it was 0.429. Moreover, the binding signal in the experiment with ETV3L was 0.543.

For CTCGGA, the binding signal worked out at 0.938 with FLI1; 0.826 in the experiment with EHF; 0.805 with SPIB; 0.845 with ETV5; 0.81 with ELF4; 0.823 in the experiment with ETV2. In the experiment with ETV3L, this sequence had a binding signal of 0.87.

On to GGTAGA, for which the binding signal in the experiment with FLI1 came out at 0.686; with EHF it was 0.69; with SPIB, 0.627; in the experiment with ETV5, 0.639; in the experiment with ELF4 it was 0.624; with ETV2, 0.62. In the experiment with ETV3L, this sequence returned a binding signal of 0.709.

For CGGAGC, the binding signal worked out at 0.374 in the experiment with FLI1; 0.381 in the experiment with EHF; 0.417 in the experiment with SPIB; 0.367 with ETV5; 0.364 with ELF4; 0.287 with ETV2. Further, the binding signal with ETV3L stood at 0.408.

In the case of CGGGAT, the binding signal worked out at 0.662 in the experiment with FLI1; 0.626 with EHF; 0.664 with SPIB; 0.624 with ETV5; 0.623 in the experiment with ELF4; 0.651 in the experiment with ETV2. The same sequence yielded a binding signal with ETV3L of 0.676.

As to GGTGGG, the binding signal with FLI1 came out at 0.7; with EHF it was 0.672; with SPIB, 0.604; with ETV5 it was 0.656; in the experiment with ELF4, 0.62; with ETV2, 0.614. For the same sequence, in the experiment with ETV3L, the binding signal was found to be 0.695.

For the sequence GACTGA, the binding signal with FLI1 was 0.778; with EHF, 0.801; with SPIB it was 0.809; with ETV5, 0.811; in the experiment with ELF4, 0.865; with ETV2, 0.723. In the experiment with ETV3L, this sequence came in with a binding signal of 0.764.

Regarding CAGGTG, the binding signal in the experiment with FLI1 is 0.533; in the experiment with EHF it was 0.586; in the experiment with SPIB it was 0.573; in the experiment with ETV5, 0.587; with ELF4, 0.628; in the experiment with ETV2, 0.58. Also, the binding signal in the experiment with ETV3L is 0.593.

For GGCGGT, the binding signal with FLI1 turned out to be 0.417; in the experiment with EHF, 0.39; with SPIB, 0.439; with ETV5, 0.419; in the experiment with ELF4 it was 0.403; in the experiment with ETV2, 0.385. The binding signal with ETV3L stood at 0.429.

In the case of AGGACA, the binding signal with FLI1 stood at 0.798; with EHF, 0.833; with SPIB, 0.807; with ETV5, 0.845; with ELF4, 0.811; with ETV2, 0.779. The same sequence yielded a binding signal with ETV3L of 0.788.

On to GGACTG, for which the binding signal with FLI1 was determined as 0.691; with EHF, 0.708; with SPIB, 0.707; with ETV5, 0.695; with ELF4, 0.786; with ETV2, 0.753. Also, in the experiment with ETV3L, the binding signal turned out to be 0.724.

On to CCAGCG, for which the binding signal with FLI1 turned out to be 0.66; in the experiment with EHF it was 0.622; with SPIB, 0.652; in the experiment with ETV5, 0.58; with ELF4 it was 0.658; with ETV2 it was 0.626. In addition, the binding signal with ETV3L was determined as 0.67.

As to AGTCGT, the binding signal came out at 0.42 with FLI1; 0.34 with EHF; 0.366 in the experiment with SPIB; 0.381 with ETV5; 0.394 with ELF4; 0.406 in the experiment with ETV2. In the experiment with ETV3L, this sequence yielded a binding signal of 0.415.

As for ACCCAG, the binding signal in the experiment with FLI1 came out at 0.699; with EHF, 0.709; with SPIB, 0.733; in the experiment with ETV5 it was 0.735; in the experiment with ELF4, 0.743; with ETV2, 0.772. Also, the binding signal with ETV3L stood at 0.719.

For the sequence CAGGGA, the binding signal with FLI1 was 0.55; with EHF, 0.532; with SPIB, 0.548; with ETV5, 0.494; with ELF4, 0.535; in the experiment with ETV2, 0.532. The binding signal in the experiment with ETV3L is 0.528.

Regarding GCATGT, the binding signal came out at 0.771 in the experiment with FLI1; 0.742 with EHF; 0.769 with SPIB; 0.768 in the experiment with ETV5; 0.856 with ELF4; 0.81 with ETV2. In addition, the binding signal in the experiment with ETV3L is 0.797.
